PubChem BioAssay AID1259308 | NCATS | 2017
Screen: 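Candidate targets for better recombinant protein yield in mammalian cells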 (primary screen). System: human HEK293 embryonic kidney cells stably expressing firefly luciferase (HEK-CMV-Luc2-Hygro). Reagents: single siRNA against human genes, 0.8 pmol siRNA per well. Time to read-out: 72 h. Detection: 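Reporter luminescence and viable-cell signal on separate replicate plates, given as percent of non-targeting control and median/MAD z-scores, plus per-cell luciferase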. Reading the numbers: total luciferase, z-score: higher = more reporter protein produced. Hit rule: 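Active when the median/MAD z-score for overall luciferase is greater than 3; a gene was taken forward for validation with new siRNAs if at least two of its three siRNAs passed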. Meaning of the calls: active = raised luciferase; inactive = no rise.
In all, the deposit lists about 59,000 reagents; this is a part drawn at random. About 1,510 of all reagents (2.6%) count as active. 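Calls use total luciferase alone and ignore viability, so some active siRNAs may act by altering cell number.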 Unmarked entries are inactive. Reagents against one gene are numbered here. Not all columns of the deposit are shown. No sequences are given here.

gene knocked down | siRNA no. | total luciferase, z-score
PAK6 | 1 | 0.655
PAK6 | 2 | 0.83
PAK6 | 3 | 1.99
XBP1 | 1 | -0.392
XBP1 | 2 | -0.111
XBP1 | 3 | 4.23 (active)
FAM174C | 1 | -0.751
FAM174C | 2 | -1.98
FAM174C | 3 | -1.48
S100A14 | 1 | -0.886
S100A14 | 2 | 2.25
S100A14 | 3 | -1.64
LZTS2 | 1 | 0.046
LZTS2 | 2 | -1.26
LZTS2 | 3 | 1.34
AGXT | 1 | 0.222
AGXT | 2 | -0.232
AGXT | 3 | -0.188
RNF123 | 1 | 0.069
RNF123 | 2 | -0.288
RNF123 | 3 | -0.197
TRIP13 | 1 | 0.194
TRIP13 | 2 | 1
TRIP13 | 3 | 0.806
MRPS16 | 1 | 0.00397
MRPS16 | 2 | -0.241
MRPS16 | 3 | -0.178
NAT8B | 1 | -0.568
NAT8B | 2 | -0.2
NAT8B | 3 | 0.948
KRTAP5-11 | 1 | -0.0447
KRTAP5-11 | 2 | -0.378
KRTAP5-11 | 3 | 1.02
BCL2L2 | 1 | 1.93
BCL2L2 | 2 | 0.259
BCL2L2 | 3 | -0.17
OR9K2 | 1 | 0.0598
OR9K2 | 2 | -1.02
OR9K2 | 3 | 1.48

Targets listed so far whose gene name begins with M or m (3):
gene knocked down | siRNA no. | total luciferase, z-score
MRPS16 | 1 | 0.00397
MRPS16 | 2 | -0.241
MRPS16 | 3 | -0.178
